Some of the results follow.
Each target was assayed with C1=CC=C(C=C1)C2=NC(=C(N2)C3=CC=NC=C3)C4=CC(=C(C=C4)Cl)O (assay: log2 fold change, soluble protein after heating vs DMSO (PISA); higher = thermal stabilisation; K562 cells, 10 uM, 30 min; active = over 0.2 and 3.5 SD of the protein, either way, in both replicates (recomputed)).
Outline: (§1)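 Values are thermal stability changes relative to control samples and are taken from duplicates. They are stated as log2 fold changes. Before quantification by TMTpro 16plex LC-MS/MS with equalised channel sums, K562 cells at 2×10^6 cells/mL were treated with 10 μM compound for 30 min, heated in aliquots for 3 min across 48°C-58°C, pooled, extracted in PBS with 0.5% NP-40 at 4°C, and centrifuged at 21,000xg for 90 min to give the soluble supernatant.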

By UniProt entry, the sequences of proteins in these tests, tags left out. Where a name states a change or a piece, a line headed by the entry shows the natural chain unless it says otherwise.
UniProt Q13616, whole entry, looked up: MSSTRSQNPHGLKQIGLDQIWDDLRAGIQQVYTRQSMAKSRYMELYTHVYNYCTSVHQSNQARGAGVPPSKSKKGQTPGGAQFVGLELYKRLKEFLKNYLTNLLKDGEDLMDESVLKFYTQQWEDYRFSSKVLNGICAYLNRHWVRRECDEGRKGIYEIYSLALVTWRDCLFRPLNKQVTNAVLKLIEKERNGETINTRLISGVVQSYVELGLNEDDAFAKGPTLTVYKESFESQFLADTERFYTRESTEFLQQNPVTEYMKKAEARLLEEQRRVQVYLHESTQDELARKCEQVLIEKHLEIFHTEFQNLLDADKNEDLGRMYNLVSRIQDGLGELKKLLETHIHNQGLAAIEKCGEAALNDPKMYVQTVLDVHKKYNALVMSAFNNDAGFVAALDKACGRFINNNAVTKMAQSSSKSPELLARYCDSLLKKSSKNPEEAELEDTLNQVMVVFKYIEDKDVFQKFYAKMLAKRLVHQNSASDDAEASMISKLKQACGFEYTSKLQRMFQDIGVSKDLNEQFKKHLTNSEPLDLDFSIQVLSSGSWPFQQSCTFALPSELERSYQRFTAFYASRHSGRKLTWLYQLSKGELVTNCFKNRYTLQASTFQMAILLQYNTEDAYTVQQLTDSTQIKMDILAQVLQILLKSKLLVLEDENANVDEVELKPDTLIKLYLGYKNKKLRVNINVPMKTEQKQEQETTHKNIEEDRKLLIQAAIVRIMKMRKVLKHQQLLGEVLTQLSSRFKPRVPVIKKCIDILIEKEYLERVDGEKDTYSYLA
UniProt P49711: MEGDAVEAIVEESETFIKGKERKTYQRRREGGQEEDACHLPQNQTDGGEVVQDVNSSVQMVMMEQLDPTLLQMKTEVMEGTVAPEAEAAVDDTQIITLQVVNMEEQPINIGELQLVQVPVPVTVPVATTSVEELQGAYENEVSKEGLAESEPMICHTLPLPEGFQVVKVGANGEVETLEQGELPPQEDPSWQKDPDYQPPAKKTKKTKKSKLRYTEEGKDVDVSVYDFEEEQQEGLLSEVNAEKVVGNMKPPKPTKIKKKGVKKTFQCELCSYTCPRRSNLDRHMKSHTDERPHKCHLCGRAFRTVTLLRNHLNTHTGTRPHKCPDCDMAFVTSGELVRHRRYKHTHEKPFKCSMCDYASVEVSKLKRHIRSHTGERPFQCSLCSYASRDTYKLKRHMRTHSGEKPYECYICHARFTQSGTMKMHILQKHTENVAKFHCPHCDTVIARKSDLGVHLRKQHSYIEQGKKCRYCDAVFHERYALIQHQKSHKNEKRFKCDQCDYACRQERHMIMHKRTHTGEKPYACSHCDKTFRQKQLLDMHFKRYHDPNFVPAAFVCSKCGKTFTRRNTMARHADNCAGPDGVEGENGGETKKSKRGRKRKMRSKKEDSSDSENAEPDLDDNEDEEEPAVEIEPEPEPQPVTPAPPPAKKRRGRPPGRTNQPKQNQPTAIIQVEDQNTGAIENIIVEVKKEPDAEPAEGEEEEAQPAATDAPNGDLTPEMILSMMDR
UniProt P04080: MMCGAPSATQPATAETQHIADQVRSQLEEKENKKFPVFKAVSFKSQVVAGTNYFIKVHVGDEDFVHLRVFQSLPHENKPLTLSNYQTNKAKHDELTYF
UniProt Q13618, whole entry, looked up: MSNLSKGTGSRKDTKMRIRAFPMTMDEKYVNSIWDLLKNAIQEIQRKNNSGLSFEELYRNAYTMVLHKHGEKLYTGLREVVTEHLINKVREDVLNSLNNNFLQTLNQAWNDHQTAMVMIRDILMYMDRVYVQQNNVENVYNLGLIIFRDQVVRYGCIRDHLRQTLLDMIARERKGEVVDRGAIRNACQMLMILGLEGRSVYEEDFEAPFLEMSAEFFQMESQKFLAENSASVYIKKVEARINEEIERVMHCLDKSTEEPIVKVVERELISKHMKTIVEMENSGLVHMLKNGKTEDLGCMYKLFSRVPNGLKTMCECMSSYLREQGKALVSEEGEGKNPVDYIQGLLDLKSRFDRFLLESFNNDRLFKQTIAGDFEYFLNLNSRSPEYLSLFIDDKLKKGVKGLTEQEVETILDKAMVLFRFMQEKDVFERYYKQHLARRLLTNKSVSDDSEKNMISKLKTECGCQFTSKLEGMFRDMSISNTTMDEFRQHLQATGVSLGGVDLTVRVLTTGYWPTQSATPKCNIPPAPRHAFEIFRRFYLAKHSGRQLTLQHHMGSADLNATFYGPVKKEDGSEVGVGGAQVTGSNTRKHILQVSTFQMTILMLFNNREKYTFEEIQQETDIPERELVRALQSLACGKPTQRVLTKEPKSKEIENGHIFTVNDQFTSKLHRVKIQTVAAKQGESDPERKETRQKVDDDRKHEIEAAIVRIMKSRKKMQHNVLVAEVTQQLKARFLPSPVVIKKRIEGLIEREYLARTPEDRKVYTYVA
UniProt O00399, whole entry, looked up: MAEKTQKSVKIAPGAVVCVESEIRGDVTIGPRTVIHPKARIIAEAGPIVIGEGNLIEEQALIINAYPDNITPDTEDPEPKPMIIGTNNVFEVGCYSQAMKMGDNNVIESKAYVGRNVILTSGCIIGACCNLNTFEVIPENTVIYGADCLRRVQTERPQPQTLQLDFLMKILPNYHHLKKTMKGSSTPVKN
UniProt Q9NPI6: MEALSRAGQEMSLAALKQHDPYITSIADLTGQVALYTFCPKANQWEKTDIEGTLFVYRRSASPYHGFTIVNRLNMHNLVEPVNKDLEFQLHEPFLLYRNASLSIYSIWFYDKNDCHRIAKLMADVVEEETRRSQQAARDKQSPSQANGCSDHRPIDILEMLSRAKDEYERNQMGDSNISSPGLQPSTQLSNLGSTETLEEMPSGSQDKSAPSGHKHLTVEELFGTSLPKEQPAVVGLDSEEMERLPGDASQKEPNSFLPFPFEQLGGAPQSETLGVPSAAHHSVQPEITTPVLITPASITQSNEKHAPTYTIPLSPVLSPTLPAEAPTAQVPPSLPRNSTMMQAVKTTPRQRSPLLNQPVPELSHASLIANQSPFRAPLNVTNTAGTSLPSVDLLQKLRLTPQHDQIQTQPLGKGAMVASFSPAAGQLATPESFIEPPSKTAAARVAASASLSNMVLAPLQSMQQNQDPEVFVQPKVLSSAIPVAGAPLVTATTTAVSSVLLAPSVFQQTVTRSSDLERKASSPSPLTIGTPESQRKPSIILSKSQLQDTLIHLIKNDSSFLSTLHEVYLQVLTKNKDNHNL
UniProt Q1MSJ5: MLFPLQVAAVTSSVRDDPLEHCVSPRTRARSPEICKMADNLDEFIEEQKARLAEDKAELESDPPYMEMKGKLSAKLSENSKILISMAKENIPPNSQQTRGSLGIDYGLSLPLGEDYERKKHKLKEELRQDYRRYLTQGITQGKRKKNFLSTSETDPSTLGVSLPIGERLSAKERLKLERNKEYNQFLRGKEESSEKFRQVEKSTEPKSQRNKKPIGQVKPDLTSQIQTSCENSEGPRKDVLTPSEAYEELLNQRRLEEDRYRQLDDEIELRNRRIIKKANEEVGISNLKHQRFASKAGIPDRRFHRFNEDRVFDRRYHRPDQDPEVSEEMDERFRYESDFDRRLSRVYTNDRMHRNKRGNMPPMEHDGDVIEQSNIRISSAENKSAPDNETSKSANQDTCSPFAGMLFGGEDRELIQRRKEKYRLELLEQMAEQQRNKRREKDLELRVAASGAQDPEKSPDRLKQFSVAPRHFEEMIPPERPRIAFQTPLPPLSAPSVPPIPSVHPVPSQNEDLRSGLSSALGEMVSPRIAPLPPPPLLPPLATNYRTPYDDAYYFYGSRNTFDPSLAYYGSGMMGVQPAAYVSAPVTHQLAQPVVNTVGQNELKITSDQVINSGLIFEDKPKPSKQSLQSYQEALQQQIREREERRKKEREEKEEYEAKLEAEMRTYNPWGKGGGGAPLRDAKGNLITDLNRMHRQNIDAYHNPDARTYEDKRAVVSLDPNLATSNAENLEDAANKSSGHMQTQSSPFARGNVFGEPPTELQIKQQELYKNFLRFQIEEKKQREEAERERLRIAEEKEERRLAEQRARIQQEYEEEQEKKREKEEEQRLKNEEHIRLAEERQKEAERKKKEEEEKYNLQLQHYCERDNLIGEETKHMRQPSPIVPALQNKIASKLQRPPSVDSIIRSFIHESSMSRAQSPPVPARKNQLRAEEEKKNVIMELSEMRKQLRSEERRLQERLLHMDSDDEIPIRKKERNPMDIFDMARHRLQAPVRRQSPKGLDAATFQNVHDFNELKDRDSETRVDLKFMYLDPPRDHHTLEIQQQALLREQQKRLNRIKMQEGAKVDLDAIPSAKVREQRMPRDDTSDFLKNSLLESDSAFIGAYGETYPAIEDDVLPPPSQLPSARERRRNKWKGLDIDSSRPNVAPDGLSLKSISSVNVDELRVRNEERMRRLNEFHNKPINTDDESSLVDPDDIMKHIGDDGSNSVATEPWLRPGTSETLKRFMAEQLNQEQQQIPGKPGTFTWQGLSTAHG
UniProt Q9Y4B6: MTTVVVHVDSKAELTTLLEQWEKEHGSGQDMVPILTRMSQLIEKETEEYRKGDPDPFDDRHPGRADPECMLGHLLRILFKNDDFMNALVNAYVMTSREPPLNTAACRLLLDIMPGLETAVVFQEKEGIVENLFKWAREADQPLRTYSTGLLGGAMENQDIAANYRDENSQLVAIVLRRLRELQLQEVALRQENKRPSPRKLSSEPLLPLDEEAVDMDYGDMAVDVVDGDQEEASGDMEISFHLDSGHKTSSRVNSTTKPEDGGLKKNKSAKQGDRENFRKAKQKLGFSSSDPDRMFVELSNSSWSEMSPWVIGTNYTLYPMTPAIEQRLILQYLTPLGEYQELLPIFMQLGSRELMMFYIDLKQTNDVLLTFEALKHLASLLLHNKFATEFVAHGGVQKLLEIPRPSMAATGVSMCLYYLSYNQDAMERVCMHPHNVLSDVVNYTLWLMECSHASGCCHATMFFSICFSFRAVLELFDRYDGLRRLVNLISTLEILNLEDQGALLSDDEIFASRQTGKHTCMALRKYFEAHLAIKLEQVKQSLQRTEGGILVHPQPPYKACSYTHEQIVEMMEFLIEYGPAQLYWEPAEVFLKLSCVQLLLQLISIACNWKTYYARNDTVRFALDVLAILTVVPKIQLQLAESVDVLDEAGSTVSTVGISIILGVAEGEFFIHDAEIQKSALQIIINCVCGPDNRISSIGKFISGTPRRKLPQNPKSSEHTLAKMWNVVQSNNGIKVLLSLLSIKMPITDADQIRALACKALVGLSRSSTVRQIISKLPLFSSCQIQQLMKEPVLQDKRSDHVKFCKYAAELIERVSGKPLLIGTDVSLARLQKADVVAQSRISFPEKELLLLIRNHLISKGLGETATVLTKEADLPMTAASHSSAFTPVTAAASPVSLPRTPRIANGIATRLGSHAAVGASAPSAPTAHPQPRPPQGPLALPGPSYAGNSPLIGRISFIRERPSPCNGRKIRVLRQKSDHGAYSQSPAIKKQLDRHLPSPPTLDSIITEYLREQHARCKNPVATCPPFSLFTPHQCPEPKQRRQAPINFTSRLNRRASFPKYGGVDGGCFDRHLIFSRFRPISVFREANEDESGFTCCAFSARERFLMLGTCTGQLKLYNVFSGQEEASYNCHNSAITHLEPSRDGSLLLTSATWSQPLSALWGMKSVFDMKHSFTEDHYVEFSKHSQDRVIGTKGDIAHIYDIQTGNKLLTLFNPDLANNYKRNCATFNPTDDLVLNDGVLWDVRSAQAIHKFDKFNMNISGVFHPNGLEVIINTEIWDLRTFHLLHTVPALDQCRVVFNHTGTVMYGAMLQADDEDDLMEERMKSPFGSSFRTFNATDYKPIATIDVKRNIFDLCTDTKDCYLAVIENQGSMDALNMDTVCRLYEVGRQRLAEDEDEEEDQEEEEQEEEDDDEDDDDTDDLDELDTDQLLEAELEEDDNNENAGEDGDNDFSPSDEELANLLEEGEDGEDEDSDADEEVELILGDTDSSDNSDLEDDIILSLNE
UniProt P0DMU9: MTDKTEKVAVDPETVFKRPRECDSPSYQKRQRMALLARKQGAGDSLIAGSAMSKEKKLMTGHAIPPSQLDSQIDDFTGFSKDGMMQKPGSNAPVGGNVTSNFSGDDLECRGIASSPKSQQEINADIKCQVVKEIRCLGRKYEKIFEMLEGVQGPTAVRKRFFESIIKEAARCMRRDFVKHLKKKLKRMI
UniProt Q9UHQ9: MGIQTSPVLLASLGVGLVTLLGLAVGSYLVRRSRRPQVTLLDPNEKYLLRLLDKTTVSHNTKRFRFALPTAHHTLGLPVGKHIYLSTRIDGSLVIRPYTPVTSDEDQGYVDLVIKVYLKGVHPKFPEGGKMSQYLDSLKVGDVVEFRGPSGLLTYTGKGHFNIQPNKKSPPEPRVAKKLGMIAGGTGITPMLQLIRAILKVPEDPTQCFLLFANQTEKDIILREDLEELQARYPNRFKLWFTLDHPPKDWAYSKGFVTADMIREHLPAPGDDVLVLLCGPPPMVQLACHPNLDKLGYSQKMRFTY
UniProt O75935, whole entry, looked up: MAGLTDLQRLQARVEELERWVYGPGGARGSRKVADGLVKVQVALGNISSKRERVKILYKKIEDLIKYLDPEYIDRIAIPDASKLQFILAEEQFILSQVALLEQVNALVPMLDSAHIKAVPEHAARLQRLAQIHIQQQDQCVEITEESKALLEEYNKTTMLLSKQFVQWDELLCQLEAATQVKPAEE

log2 fold change, inactive:
CUL1 (UniProt Q13616) 0.064
CTCF (UniProt P49711) -0.169
CSTB (UniProt P04080) 0.047
CUL3 (UniProt Q13618) 0.031
CTH (UniProt P32929) 0.08
CUL4B (UniProt K4DI93) 0.055
CYP20A1 (UniProt Q6UW02) -0.03
DCTN6 (UniProt O00399) 0.161
CYHR1 (UniProt E9PJD7) -0.044
CUTC (UniProt Q9NTM9) -0.01
DCP1A (UniProt Q9NPI6) 0.032
CSPP1 (UniProt Q1MSJ5) 0.117
DCAF1 (UniProt Q9Y4B6) -0.021
CT45A10 (UniProt P0DMU9) 0.055
CYB5R1 (UniProt Q9UHQ9) -0.051
DCTN3 (UniProt O75935) 0.003

These targets were tested with C1=CC=C2C(=C1)C3=NNC4=CC=CC(=C43)C2=O in the same assay as above.
Outline: as §1

log2 fold change, inactive:
CTPS2 (UniProt Q9NRF8) -0.019
CWC25 (UniProt Q9NXE8) -0.033
CYFIP2 (UniProt Q96F07) -0.019
CZIB (UniProt Q9NWV4) -0.013
DARS (UniProt P14868) -0.023
CYCS (UniProt P99999) 0
DARS2 (UniProt Q6PI48) -0.021
DAP3 (UniProt P51398) 0.103
CTBP1 (UniProt Q13363) 0.024
DCTN2 isoform 2 (UniProt Q13561) 0.008
CSTF1 (UniProt Q05048) 0.015
DCAKD (UniProt Q8WVC6) -0.004
DCK (UniProt P27707) 0.023
CYB5R4 (UniProt Q7L1T6) 0.033
CWF19L1 (UniProt Q69YN2) -0.044
DCAF11 (UniProt Q8TEB1) -0.067
CSTF2T (UniProt Q9H0L4) 0.017
CTU2 (UniProt Q2VPK5) 0.011
CUL2 isoform 2 (UniProt Q13617) 0.009
CTNNA2 (UniProt P26232) 0.033
CYB5R2 (UniProt Q6BCY4) -0.007
DCPS (UniProt Q96C86) -0.009
CTIF isoform 2 (UniProt O43310) -0.011
CUL1 (UniProt Q13616) -0.023
CTCF (UniProt P49711) -0.004
CSTB (UniProt P04080) -0.007
CUL3 (UniProt Q13618) 0.013
CTH (UniProt P32929) -0.02
CUL4B (UniProt K4DI93) -0.006
CYP20A1 (UniProt Q6UW02) 0.038
DCTN6 (UniProt O00399) -0.016
CYHR1 (UniProt E9PJD7) -0.033
CUTC (UniProt Q9NTM9) -0.063
DCP1A (UniProt Q9NPI6) 0.093
CSPP1 (UniProt Q1MSJ5) 0.045
DCAF1 (UniProt Q9Y4B6) -0.016
CT45A10 (UniProt P0DMU9) -0.033
CYB5R1 (UniProt Q9UHQ9) -0.008
DCTN3 (UniProt O75935) 0.028

Each target was assayed with C1CCN(C1)C(=O)NC2=CC=CC(=C2)NC3=NC=C(C(=N3)NCCC4=CN=CN4)Br in the same assay as above.
Outline: as §1

log2 fold change, inactive:
CTPS2 (UniProt Q9NRF8) -0.011
CWC25 (UniProt Q9NXE8) 0.058
CYFIP2 (UniProt Q96F07) -0.006
CZIB (UniProt Q9NWV4) 0.008
DARS (UniProt P14868) 0.008
CYCS (UniProt P99999) 0.025
DARS2 (UniProt Q6PI48) 0.014
DAP3 (UniProt P51398) -0.03
CTBP1 (UniProt Q13363) -0.012
DCTN2 isoform 2 (UniProt Q13561) 0.002
CSTF1 (UniProt Q05048) 0.014
DCAKD (UniProt Q8WVC6) -0.001
DCK (UniProt P27707) -0.033
CYB5R4 (UniProt Q7L1T6) -0.002
CWF19L1 (UniProt Q69YN2) -0.01
DCAF11 (UniProt Q8TEB1) -0.037
CSTF2T (UniProt Q9H0L4) 0.06
CTU2 (UniProt Q2VPK5) 0.013
CUL2 isoform 2 (UniProt Q13617) 0.051
CTNNA2 (UniProt P26232) 0.055
CYB5R2 (UniProt Q6BCY4) 0.04
DCPS (UniProt Q96C86) 0.039
CTIF isoform 2 (UniProt O43310) 0.099
CUL1 (UniProt Q13616) -0.011
CTCF (UniProt P49711) 0.013
CSTB (UniProt P04080) 0.002
CUL3 (UniProt Q13618) -0.018
CTH (UniProt P32929) -0.015
CUL4B (UniProt K4DI93) -0.017
CYP20A1 (UniProt Q6UW02) -0.007
DCTN6 (UniProt O00399) -0.011
CYHR1 (UniProt E9PJD7) 0.096
CUTC (UniProt Q9NTM9) -0.03
DCP1A (UniProt Q9NPI6) -0.026
CSPP1 (UniProt Q1MSJ5) -0.058
DCAF1 (UniProt Q9Y4B6) -0.026
CT45A10 (UniProt P0DMU9) 0.015
CYB5R1 (UniProt Q9UHQ9) 0.02
DCTN3 (UniProt O75935) -0.021

Reference: the supplement of paper PMC10849652
